Results deposited as PubChem BioAssay AID686938 (Drosophila RNAi Screening Center, 2013).

Assay: 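Fly genes required for calcium entry once internal stores are emptied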 (primary screen)
System: Drosophila S2R+ cells
Knock-down reagent: long dsRNA against Drosophila genes, about 0.25 µg dsRNA per well, roughly 10,000 cells
Time to read-out: 5 days of knock-down before the calcium assay
Challenge: thapsigargin (SERCA pump blocker) to empty calcium stores; entry signal taken 4 min after adding it
Detection: 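Duplicate raw fluo-4 intensities per well from a plate reader, at rest and four minutes after thapsigargin emptied calcium stores; entry-to-rest ratio filled for only some wells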
Scale: calcium entry signal: higher = stronger calcium signal after store depletion; entry to resting ratio: higher = more calcium entry relative to resting level; resting calcium signal: higher = higher resting calcium signal
Hit rule: 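Called when the plate z-score of the entry-to-rest ratio, mean of duplicates, falls below −3; wells with low overall dye signal (Fmax z below −2) or more than five off-targets excluded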
Meaning of the calls: active = strongly reduced calcium entry; inactive = no strong reduction
The deposit covers about 23,000 reagents; below is a random part of those with a known target gene and a result. In the full data, 75 (0.33%) got an active call. 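Raw plate signals without normalisation; calls rest on plate z-scores that were not deposited; ratio present for only 364 wells.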 A plus sign joins genes that one reagent is predicted to hit. Not given: the dose of the treatment.

no.	gene knocked down	DRSC id	calcium entry signal, replicate 1 (fluorescence units)	calcium entry signal, replicate 2 (fluorescence units)	entry to resting ratio	resting calcium signal, replicate 1 (fluorescence units)	resting calcium signal, replicate 2 (fluorescence units)	call
1	CG16998 (GeneID 38847)	DRSC10235	2.77e7	3.58e7		1.31e7	1.54e7	inactive
2	Cul5 (GeneID 43434)	DRSC14723	3.56e7	6.14e7		1.88e7	2.52e7	inactive
3	Syx4 (GeneID 31269)	DRSC18586	3.02e7	5.28e7	2	1.53e7	2.27e7	inactive
4	Aladin (GeneID 31881)	DRSC18121	3.72e7	3.88e7		1.80e7	1.84e7	inactive
5	TwdlR (GeneID 318586)	DRSC14736	3.09e7	3.70e7		1.54e7	1.69e7	inactive
6	CG14022 (GeneID 33763)	DRSC02352	3.78e7	4.01e7		1.82e7	1.76e7	inactive
7	Obp69a (GeneID 39411)	DRSC11247	3.56e7	3.22e7		1.83e7	1.45e7	inactive
8	SmydA-6 (GeneID 36917)	DRSC07341	3.20e7	4.03e7		1.49e7	1.80e7	inactive
9	CG5162 (GeneID 32709)	DRSC19935	4.20e7	3.41e7		2.20e7	1.60e7	inactive
10	Zdhhc8 (GeneID 31887)	DRSC18044	4.21e7	5.71e7		2.11e7	2.88e7	inactive
11	Zdhhc8 (GeneID 31887)	DRSC18122	4.29e7	5.07e7		1.97e7	2.41e7	inactive
12	RNaseP:RNA (GeneID 3772418)	DRSC22967	3.28e7	2.96e7		1.56e7	1.25e7	inactive
13	BaraB (GeneID 35894)	DRSC06420	3.80e7	3.54e7		1.77e7	1.63e7	inactive
14	CG32452 (GeneID 318035)	DRSC11581	3.33e7	4.13e7		1.78e7	1.91e7	inactive
15	CG32452 (GeneID 318035)	DRSC22250	2.02e7	4.62e7		1.11e7	2.10e7	inactive
16	CG34039 (GeneID 3885643)	DRSC09318	3.30e7	4.08e7		1.54e7	1.97e7	inactive
17	Abcd3 (GeneID 32992)	DRSC19488	4.29e7	2.84e7		1.95e7	1.27e7	inactive
18	Blm + CG14721	DRSC14943	3.41e7	3.62e7		1.87e7	2.03e7	inactive
19	CG1824 (GeneID 32208)	DRSC19796	2.83e7	4.51e7		1.41e7	2.04e7	inactive
20	CG11986 (GeneID 41083)	DRSC14461	3.40e7	3.42e7		1.50e7	1.58e7	inactive
21	Nup154 (GeneID 34527)	DRSC03384	2.74e7			1.76e7		inactive
22	Ntmt (GeneID 36022)	DRSC06624	3.61e7	3.59e7		1.80e7	1.62e7	inactive
23	Ran (GeneID 44072)	DRSC20364	2.19e7	2.36e7		1.57e7	1.77e7	inactive
24	dmrt11E (GeneID 32291)	DRSC19715	3.00e7	2.71e7		1.61e7	1.42e7	inactive
25	CG17712 (GeneID 33356)	DRSC00266	4.60e7			2.59e7		inactive
26	THG (GeneID 34876)	DRSC01896	3.89e7	2.43e7		1.85e7	1.27e7	inactive
27	Dyrk2 (GeneID 34831)	DRSC03610	5.36e7			2.57e7		inactive
28	bru2 (GeneID 250811)	DRSC01246	5.60e7	3.65e7		2.48e7	1.62e7	inactive
29	bru2 (GeneID 250811)	DRSC01247	3.24e7	2.52e7		2.10e7	1.54e7	inactive
30	bru2 (GeneID 250811)	DRSC01249	4.17e7	3.93e7		2.30e7	1.73e7	inactive
31	bru2 (GeneID 250811)	DRSC01250	4.78e7	4.02e7		2.17e7	1.84e7	inactive
32	bru2 (GeneID 250811)	DRSC02557	1.95e7	2.14e7		1.17e7	1.10e7	inactive
33	CG32260 (GeneID 317943)	DRSC08084	5.83e7	4.17e7		2.92e7	1.99e7	inactive
34	Eip74EF (GeneID 39962)	DRSC10613	2.20e7	2.65e7		1.24e7	2.09e7	inactive
35	Eip74EF (GeneID 39962)	DRSC11160	4.79e7	7.12e7		2.36e7	2.85e7	inactive
36	CG14502 (GeneID 37092)	DRSC06473	3.61e7	3.27e7		1.69e7	1.76e7	inactive
37	CG14406 (GeneID 32421)	DRSC19592	3.24e7	3.62e7		1.58e7	1.51e7	inactive
38	eIF4B (GeneID 3355041)	DRSC20983	4.16e7	3.41e7		1.99e7	1.53e7	inactive
39	CG11828 (GeneID 43416)	DRSC14394	3.62e7	5.83e7		1.94e7	2.57e7	inactive
40	CG11828 (GeneID 43416)	DRSC22580	3.13e7	3.36e7		1.70e7	1.57e7	inactive

Targets listed so far whose target name begins with D or d:
gene knocked down	DRSC id	calcium entry signal, replicate 1 (fluorescence units)	calcium entry signal, replicate 2 (fluorescence units)	entry to resting ratio	resting calcium signal, replicate 1 (fluorescence units)	resting calcium signal, replicate 2 (fluorescence units)	call
dmrt11E (GeneID 32291)	DRSC19715	3.00e7	2.71e7		1.61e7	1.42e7	inactive
Dyrk2 (GeneID 34831)	DRSC03610	5.36e7			2.57e7		inactive
